The record followed here is US11020333B2, “Organic compounds” (Givaudan SA, priority 2016, dated 2021).

The nature of one data set: Odor description (olfactory evaluation of the compound). As to conditions: both enantiomers possess very similar odor profiles.
In the case of `CC(C)Cc1ccc2c(c1)C(=O)[C@@H](C)C2` [(S)-6-isobutyl-2-methyl-2,3-dihydro-1H-inden-1-one], the “odor strength of the enantiomers relative to each other” value is recorded as “more powerful than (R)-6-isobutyl-2-methyl-2,3-dihydro-1H-inden-1-one”.

The data set is the same for the next values; noted with them: odor of the isomeric mixture unless otherwise indicated.
On to `CC1Cc2c(cccc2C2CC2)C1=O` (centres unmarked) [Comparison Example 7, 4-cyclopropyl-2-methyl-2,3-dihydro-1H-inden-1-one, reference compound], for which the Odor description entry is “weak floral”.

Consider `CC(C)CCc1ccc2c(c1)C(=O)C(C)C2` (centres unmarked) [Example 16, 6-isopentyl-2-methyl-2,3-dihydro-1H-inden-1-one], for which the Odor description result is recorded as “green rosy, fatty lactonic, rosy powdery, cinnamate like”. Consider `CCC1Cc2ccc(CC(C)C)cc2C1=O` (centres unmarked) [Example 13, 2-ethyl-6-isobutyl-2,3-dihydro-1H-inden-1-one], for which the Odor description result is reported as “floral fatty green, oily cinnamic, nectaryl”.

Turning to `CC(C)Cc1ccc2c(c1)C(=O)CC2` [Example 3, 6-isobutyl-2,3-dihydro-1H-inden-1-one], the Odor description entry was “green floral, isobutyl benzoate”.

Turning to `CC1Cc2cccc(C3CC3)c2C1=O` (centres unmarked) [7-cyclopropyl-2-methyl-2,3-dihydro-1H-inden-1-one, reference compound], the Odor description result is “green, floral, leathery”. The same measure, in the same setting: the entry for `CC(C)Cc1ccc2c(c1)C(=O)CC2C` (centres unmarked) [Example 8, 6-isobutyl-3-methyl-2,3-dihydro-1H-inden-1-one] is “green rosy, fatty, metallic rosy, fatty fruity floral”; for `C=C(C)Cc1cccc2c1CC(C)C2=O` (centres unmarked) [Comparison Example 5, 2-methyl-4-(2-methylallyl)-2,3-dihydro-1H-inden-1-one, reference compound] it is “fruity floral metallic, myradyl-like”. Same read-out and setting: to `CCOc1ccc2c(c1)C(=O)C(C)C2` (centres unmarked) [Example 17, 6-ethoxy-2-methyl-2,3-dihydro-1H-inden-1-one] belongs “green, waxy fruity, rosy”; to `C=C(C)Cc1cccc2c1C(=O)C(C)C2` (centres unmarked) [2-methyl-7-(2-methylallyl)-2,3-dihydro-1H-inden-1-one, reference compound], “green, wax, slightly minty”. For the compound `C=C(C)Cc1ccc2c(c1)C(=O)C(C)C2` (centres unmarked) [Example 22, 2-methyl-6-(2-methylallyl)-2,3-dihydro-1H-inden-1-one], the Odor description entry is “fatty, fruity, green, floral, cinnamic cinnamate like”.

For `CC(C)COc1ccc2c(c1)C(=O)C(C)C2` (centres unmarked) [Example 20, 6-isobutoxy-2-methyl-2,3-dihydro-1H-inden-1-one], the Odor description result is listed as “floral fruity fatty, green anisic”.

For the compound `CCCc1cccc2c1CC(C)C2=O` (centres unmarked) [Comparison Example 3, 2-methyl-4-propyl-2,3-dihydro-1H-inden-1-one, reference compound], the Odor description result is on record as “very weak, fruity, floral”. As for `CC1Cc2ccc(C(C)C)cc2C1=O` (centres unmarked) [Example 4, 6-isopropyl-2-methyl-2,3-dihydro-1H-inden-1-one], the Odor description result is on record as “green fatty, lactonic fruity, rosy metallic”. Take `CCCc1ccc2c(c1)C(=O)C(C)C2C` (centres unmarked) [Example 6, 2,3-dimethyl-6-propyl-2,3-dihydro-1H-inden-1-one]: the Odor description result is “green fatty oily, fatty fruity lactonic, metallic rosy”. Regarding `CC(C)Cc1ccc2c(c1)CC(C)C2=O` (centres unmarked) [Comparison Example 1, 5-isobutyl-2-methyl-2,3-dihydro-1H-inden-1-one, reference compound], the Odor description result is “fruity fatty citrus green, fruity citral green, soapy”. Take `CCCc1ccc2c(c1)C(=O)CC2C` (centres unmarked) [Example 2, 3-methyl-6-propyl-2,3-dihydro-1H-inden-1-one]: the Odor description result is listed as “green, floral, minty, jasmone, jasmine, camonal”.

Turning to `CC1Cc2ccc(C3CCCC3)cc2C1=O` (centres unmarked) [Example 12, 6-cyclopentyl-2-methyl-2,3-dihydro-1H-inden-1-one], the Odor description result was “fruity fatty floral, peachy, green rosy”. As to `CC1Cc2ccc(C3CC3)cc2C1=O` (centres unmarked) [Example 11, 6-cyclopropyl-2-methyl-2,3-dihydro-1H-inden-1-one], the Odor description entry is “green, fatty, floral, rosy metallic”. Regarding `CCCc1ccc2c(c1)C(=O)C(C)C2` (centres unmarked) [Example 7, 2-methyl-6-propyl-2,3-dihydro-1H-inden-1-one], the Odor description entry is “green, floral, fatty, rosy cinnamic”. As for `CC1Cc2ccc(C(C)(C)C)cc2C1=O` (centres unmarked) [Example 5, 6-(tert-butyl)-2-methyl-2,3-dihydro-1H-inden-1-one], the Odor description entry is given as “green fatty, lactonic fruity, slightly fatty cinnamic”. Same read-out and setting: to `CCC(C)c1ccc2c(c1)C(=O)C(C)C2` (centres unmarked) [Example 15, 6-(SEC-BUTYL)-2-METHYL-2,3-DIHYDRO-1H-INDEN-1-ONE] belongs “green rosy metallic, green leathery, fatty floral”; to `CC(C)Cc1ccc2c(c1)C(=O)C1(C)CC21` (centres unmarked) [Example 21, 4-isobutyl-6a-methyl-1a,6a-dihydrocyclopropa[a]inden-6(1H)-one], “fatty, fruity, green, floral, with some rubbery facets”. On the same count and under the same terms, the entry for `CCCc1ccc2c(c1)CC(C)C2=O` (centres unmarked) [2-methyl-5-propyl-2,3-dihydro-1H-inden-1-one, reference compound] is “green, waxy, fatty”; for `CCCCc1ccc2c(c1)C(=O)C(C)C2` (centres unmarked) [Example 23, 6-butyl-2-methyl-2,3-dihydro-1H-inden-1-one] it is “green fatty floral: rosy, peach, green rubbery slightly leathery isobutyl salicylate”; for `CCCOc1ccc2c(c1)C(=O)C(C)C2` (centres unmarked) [Example 19, 2-methyl-6-propoxy-2,3-dihydro-1H-inden-1-one] it is “waxy, fatty fruity, green floral”. The same measure, in the same setting: to `CCc1ccc2c(c1)C(=O)C(C)C2` (centres unmarked) [Example 14, 6-ethyl-2-methyl-2,3-dihydro-1H-inden-1-one] belongs “green minty floral, carvone jasmine fruity”; to `C=C(C)Cc1ccc2c(c1)CC(C)C2=O` (centres unmarked) [2-methyl-5-(2-methylallyl)-2,3-dihydro-1H-inden-1-one, reference compound], “fatty fruity citrus floral, “citral myraldyl”-like, soapy”; to `CC(C)Cc1ccc2c(c1)C(=O)C(C)(C)C2` [Example 9, 6-isobutyl-2,2-dimethyl-2,3-dihydro-1H-inden-1-one], “floral fatty, fruity, green, rubbery, muguet”. As to `CCCc1cccc2c1C(=O)C(C)C2` (centres unmarked) [2-methyl-7-propyl-2,3-dihydro-1H-inden-1-one, reference compound], the Odor description entry is given as “floral, rose, metallic”.

In the case of `CC1Cc2cc(C3CC3)ccc2C1=O` (centres unmarked) [5-cyclopropyl-2-methyl-2,3-dihydro-1H-inden-1-one, reference compound], the Odor description result is given as “green, creamy, lactonic”. Still for that read-out and setting: to `CC(C)Oc1ccc2c(c1)C(=O)C(C)C2` (centres unmarked) [Example 18, 6-isopropoxy-2-methyl-2,3-dihydro-1H-inden-1-one] belongs “green rosy fatty floral, slightly fatty fruity, metallic rosy”; to `CC(C)Cc1ccc2c(c1)C(=O)C(C)C2` (centres unmarked) [Example 1, 6-isobutyl-2-methyl-2,3-dihydro-1H-inden-1-one], “floral fruity fatty, creamy lactonic like, nectaryl-like, rosy, rose petal, green rose oxide-like”. With `CC1CC(=O)c2cc(C(C)(C)C)ccc21` (centres unmarked) [Example 10, 6-(tert-butyl)-3-methyl-2,3-dihydro-1H-inden-1-one], the Odor description result was “fruity, floral”.

The same data set, now with this note: odor of the isomeric mixture unless otherwise indicated; listed as 6-(sec-butyl)methyl-2,3-dihydro-1H-inden-1-one.
Regarding `CCC(C)c1ccc2c(c1)C(=O)C(C)C2` (centres unmarked) [Example 15, 6-(SEC-BUTYL)-2-METHYL-2,3-DIHYDRO-1H-INDEN-1-ONE], the Odor description entry is “very powerful ingredient with strong green rosy metallic and green leathery rubbery facets, and an overall fatty fruity floral character”.

The data set is the same for the next values; noted with them: odor of the isomeric mixture unless otherwise indicated; listed as 6-isobutyl-2-methyl-2,3-dihydro-1H-inden-1-one.
As for `CC(C)Cc1ccc2c(c1)C(=O)C(C)C2` (centres unmarked) [Example 1, 6-isobutyl-2-methyl-2,3-dihydro-1H-inden-1-one], the Odor description result is “very powerful, floral fruity fatty, with creamy lactonic nectaryl like facet, and a rosy floral character with rose petal like and green rose oxide like facets”.

A short description of a further data set: Rosy fragrance composition for fine perfumery: olfactory effect of adding the compound, compared to the accord with DPG instead. Conditions: 10 parts per 1000 in the accord; assessed at 10 weight % in alcohol; compared to accord with DPG instead. The source says: EXAMPLE 25: ROSY FRAGRANCE COMPOSITION FOR FINE PERFUMERY
This natural rose, spicy (clove) fresh light and delicate accord with slightly fruity (apple) facets is best to be assessed at 10 weight % in alcohol (85). […] This accord above is, e.g., suitable for fragrancing a softener.
`CC(C)Cc1ccc2c(c1)C(=O)C(C)C2` (centres unmarked) [Example 1, 6-isobutyl-2-methyl-2,3-dihydro-1H-inden-1-one]: the “olfactory effect of addition to the rosy accord” value was “much more impact accord, and the character is now fruity peach creamy, with a rose floral freshness”.

The data set is the same for the next values; noted with them: 10 parts per 1000 in the accord; compared to accord wherein the compound is replaced by DPG.
As to `CC(C)Cc1ccc2c(c1)C(=O)C(C)C2` (centres unmarked) [Example 1, 6-isobutyl-2-methyl-2,3-dihydro-1H-inden-1-one], the “long-lastingness of the accord” value is “more long lasting”.
